Data published in US20220187281A1, “METHODS AND SYSTEMS FOR EVALUATION OF CELL SAMPLES” (priority 2019, published 2022).
At least one compound was matched to its structure with a doubt left.

Tested on: PDX GBM model (SN289)
Assay: Cell-Titer Blue viability of SN289 GBM PDX slice punches, drug plus radiation
Format: cell-based, human
Conditions: in combination with radiation, 4 div to 13 div

## Cn1nnc2c(C(N)=O)ncn2c1=O [TMZ, temozolomide]
  viability response: reduced viability
